In this assay the target is full length F protein from RSV (A2 strain), expressed in transfected 293F cells (RSV (A2 strain)) (UniProt P03420). In words: intracellular staining of 293F cells transfected with full length RSV F (A2).

Sequences of proteins named here, by UniProt entry; tags and fusion partners are left off. Residues count along the entry.
UniProt P03420, residues 26-574: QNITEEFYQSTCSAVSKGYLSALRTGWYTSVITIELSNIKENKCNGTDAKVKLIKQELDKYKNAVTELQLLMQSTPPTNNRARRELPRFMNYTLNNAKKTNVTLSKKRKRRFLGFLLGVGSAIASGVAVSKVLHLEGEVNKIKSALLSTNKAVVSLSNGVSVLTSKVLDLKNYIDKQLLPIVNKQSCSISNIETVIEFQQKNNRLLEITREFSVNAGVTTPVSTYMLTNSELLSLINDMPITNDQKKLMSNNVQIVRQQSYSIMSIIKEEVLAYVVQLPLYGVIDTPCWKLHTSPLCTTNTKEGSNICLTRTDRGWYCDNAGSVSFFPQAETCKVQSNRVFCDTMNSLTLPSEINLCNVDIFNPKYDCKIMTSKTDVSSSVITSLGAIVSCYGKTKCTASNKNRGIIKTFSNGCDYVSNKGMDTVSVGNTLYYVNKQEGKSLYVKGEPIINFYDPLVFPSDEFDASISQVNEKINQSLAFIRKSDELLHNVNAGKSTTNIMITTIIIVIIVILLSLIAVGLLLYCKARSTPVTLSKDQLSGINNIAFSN

No constants are given. Whether binding was seen depends on the method and setting. Some entries that bind do so weakly or less than the wild type.

B1: HMB2435 (antibody, human IgG1, V domains shown)
VH: QVQLVESGGGVVQPGRPLRLSCAASGFAFNNFALHWVRQAPGKGPEWLAAVSYDGTSPYYAESVRARFSISRDNSKKTFYLQLDSLRPEDTAVYYCARGLGSGSYSWIGYFYAMDVWGRGTTVTVSS
VL: QSALTQPASVSGSPGQSITISCTGTSSDVGGYVYVAWYQQHPGTAPKLIIYDVSDRPSGVSNRFSGSKSGNTASLTISGLQAEDDADYYCISYTDRNTVVFGGGTKLTVL
For the molecule B1, the binding entry was “binds”.
